# The other results are listed elsewhere or left out.
# Test system: T1, CTL2-GFP (C. trachomatis L2/434/Bu, GFP-expressing)
# T1 construct: L2/434/Bu, GFP-expressing
# Design: species or system HeLa; Intracellular C. trachomatis growth in HeLa cells, bulk GFP fluorescence relative to DMSO
# Settings: bulk GFP, single well; 28.5 h, 10 µM; inhibitor
row,Structure (SMILES),% of control remaining
1,Cc1cc(C(=O)N2CCCC(c3ccc(Cc4ccc(Cl)cc4)cn3)C2)nc(N(C)C)n1 (stereo not shown) [CBK286036],42.3368%
2,Nc1ncc(-c2cccc3cccnc23)nc1NCc1ccncc1 [CBK063622],163.75%
3,COc1cncc(-c2cnc(N)c(NCc3cccnc3)n2)c1 [CBK063531],150.294%
4,CCOc1cccc2cc(-c3cc(=O)oc4cc(C)c(O)cc34)oc12 [CBK300517],109.189%
5,CCc1cnc(CN(C)C2CCN(CC(=O)NCc3ccco3)C2)o1 (stereo not shown) [CBK306137],121.712%
6,Cc1ccc(CCn2nc(C)cc2C)cn1 [CBK021375],122.806%
7,COc1ccccc1Cc1cccc(C2CCN(C(=O)Cc3c[nH]c4ccccc34)CC2)n1 [CBK286226],106.828%
8,COC(=O)c1sccc1Oc1ccc([N+](=O)[O-])cn1 [CBK066826],103.756%
9,CC(C)Nc1nc2ccccc2nc1SCCC(=O)O [CBK107858],118.661%
10,COc1c(Cl)cc(Cl)cc1C(=O)NC(=S)Nc1sc2c(c1C#N)CCCC2 [CBK268741],153.476%
11,COc1ccc(C(=O)N2CCC3(CCCN(CCN(C)C)C3)C2)cc1OC (stereo not shown) [CBK132873],117.272%
12,O=C(NCCCO)c1c(O)c2ccccc2[nH]c1=O [CBK018215],107.321%
13,CC(CNC(=O)c1cncc(O)c1)NC(=O)c1cncc(O)c1 (stereo not shown) [CBK278174],111.658%
14,CCOC(=O)c1c(NC(=O)CN2CCCCC2)sc2c1CCCC2=O [CBK263224],112.891%
15,CC(C)(C)OC(=O)NC1CCN(C(=O)CCC(=O)O)CC1 [CBK286604],129.005%
16,CC1CCN(S(=O)(=O)c2cccc(C(=O)NNC(=O)c3ccco3)c2)CC1 [CBK266796],138.182%
17,Cc1scc(C(=O)NN2CCN(C)CC2)c1-c1ccccc1 [CBK268115],147.534%
18,O=C1CC(C(=O)NCc2ccc(-c3csnn3)cc2)c2ccccc21 (stereo not shown) [CBK149301],92.5139%
19,Oc1cccc(OCCOc2cccc(C(F)(F)F)n2)c1 [CBK115797],98.6778%
20,COc1ccc(C(C)C)cc1-c1cnc2nc(N)ccc2c1 [CBK081216],74.4813%
21,N#Cc1ccc(OCCO)cc1 [CBK000723],96.0816%
22,Cn1c(SCC(=O)c2ccc(Cl)cc2)nnc1-c1cnccc1C(F)(F)F [CBK067698],79.216%
23,CCN1CCN(CCCOc2ccccc2Cc2ccccc2)CC1 [CBK267379G],119.902%
24,CC[C@@H]1COCCN1C(=O)c1sc2ccccc2c1Cl [CBK103641],131.441%
25,Cc1ccccc1CSc1nc2ccc([N+](=O)[O-])cc2[nH]1 [CBK267879],95.3272%
26,CSCCCNC(=O)N1CCNC(=O)C1 [CBK155848],93.7087%
27,COc1ccc2c(c1)C1(CC(=O)N(CCc3scnc3C)C1=O)C(=O)N2C (stereo not shown) [CBK075213],106.046%

row,Structure (SMILES),% of control remaining
1,Fc1ccc(-c2cn(-c3cncnc3)nn2)c(F)c1 [CBK112989],100%
2,CCC1CCC2(CC1)NC(=O)N(Cc1nc(-c3cccs3)no1)C2=O (stereo not shown) [CBK305005],131.713%
3,N=c1n(CCN2CCCCC2)c2ccccc2n1CC(=O)c1cccs1 [CBK278244B],100%
4,O=C(NCCNc1ccc(Cl)cc1[N+](=O)[O-])c1ccccc1Br [CBK263538],118.78%
5,O=C(O)c1cc(S(=O)(=O)N2CCOCC2)c(Cl)cc1NC1CCCCC1 [CBK264576],125.514%
6,Cc1ccc(-c2ncc(OCC3CCCN3C)nc2N)c(C)c1 (stereo not shown) [CBK145137],125.26%
7,Cc1c(NC(=O)c2ccc3c(c2)C(=O)N(Cc2ccco2)C3=O)cccc1C(=O)O [CBK268627],164.169%
8,Cc1cc(CN2CCN(c3nc(-c4ccccc4)nc4ccccc34)CC2)no1 [CBK296654],143.511%
9,CC(C)(C)OC(=O)N1CCC(CNS(=O)(=O)c2cccc3cccnc23)CC1 [CBK086017],117.145%
10,COc1ccc(CN(CCCN2CCOCC2)C(=O)NCc2ccc(C#N)cc2)cc1OC [CBK159125],127.762%
11,CN(C)c1cccc(Nc2cc(-c3ccco3)ncn2)c1 [CBK091014],128.645%
12,CCOc1ccccc1NC(=O)CSc1cnn[nH]1 [CBK270005],162.576%
13,COc1cccc(CN2CCN(C(=O)N3CCCC3)[C@@H](C)C2)c1 [CBK285491],94.515%
14,CN1CCN(c2ccc([N+](=O)[O-])cc2/C=N/NC(=O)CCc2ccccc2O)CC1 [CBK263281],117.459%
15,COc1ccc2[nH]c(C(=O)O)c(CCNC(C)=O)c2c1 [CBK260943N],111.517%
16,Cc1sc2ncn(CC3(O)CCCNC3)c(=O)c2c1-c1ccc(F)cc1 (stereo not shown) [CBK307346],146.321%
17,COc1ccc(C(=O)Nc2ccccc2N2CCN(C)CC2)c(OC)c1 [CBK269763],87.7657%
18,CC1(C)OC(NC2CC3CCC2C3)=NC1=O (stereo not shown) [CBK092237],144.47%
19,O=C(O)c1nc(/N=C/c2ccc(C#Cc3ccccc3)cc2)n[nH]1 [CBK261219],109.797%
20,COc1ccc(C(=O)N2CCC3(CCCN(C(=O)c4cc(OC)c(OC)c(OC)c4)C3)C2)cc1OC (stereo not shown) [CBK131667],122.477%
21,NCC(=O)Nc1ccc(F)c(F)c1 [CBK046313],122.662%
22,Cc1ccc2oc(C(=O)N3CCN(CC(=O)N(C)C)CC3)c(C)c2c1 [CBK281423],115.996%
23,O=C(NCc1ccc(Cl)c(Cl)c1)C1(c2ccccc2)CCCC1 [CBK149528],66.1206%
24,CCc1nc2ccc(C(=O)N3CCCC(C(N)=O)C3)cn2c1N(CC)CCN(C)C (stereo not shown) [CBK146185],138.342%
25,O=C(NC1CCCC1)c1ccc(-c2cnc3[nH]c(=O)n(Cc4ccc(Cl)cc4)c3n2)cc1 [CBK065039],157.788%
26,CCC(CC)C(=O)Nc1nc(OCCN2CCCC2=O)cnc1-c1ccc(Cl)cc1Cl [CBK145210],104.673%
27,COc1ccccc1C(CC(=O)O)c1ccc2c(c1)OCO2 (stereo not shown) [CBK286971],114.315%

# Not a retest: entries from further up.
row,Structure (SMILES),% of control remaining
3,N=c1n(CCN2CCCCC2)c2ccccc2n1CC(=O)c1cccs1 [CBK278244B],100%
4,O=C(NCCNc1ccc(Cl)cc1[N+](=O)[O-])c1ccccc1Br [CBK263538],118.78%
5,O=C(O)c1cc(S(=O)(=O)N2CCOCC2)c(Cl)cc1NC1CCCCC1 [CBK264576],125.514%
6,Cc1ccc(-c2ncc(OCC3CCCN3C)nc2N)c(C)c1 (stereo not shown) [CBK145137],125.26%
7,Cc1c(NC(=O)c2ccc3c(c2)C(=O)N(Cc2ccco2)C3=O)cccc1C(=O)O [CBK268627],164.169%
8,Cc1cc(CN2CCN(c3nc(-c4ccccc4)nc4ccccc34)CC2)no1 [CBK296654],143.511%
9,CC(C)(C)OC(=O)N1CCC(CNS(=O)(=O)c2cccc3cccnc23)CC1 [CBK086017],117.145%
10,COc1ccc(CN(CCCN2CCOCC2)C(=O)NCc2ccc(C#N)cc2)cc1OC [CBK159125],127.762%
11,CN(C)c1cccc(Nc2cc(-c3ccco3)ncn2)c1 [CBK091014],128.645%
12,CCOc1ccccc1NC(=O)CSc1cnn[nH]1 [CBK270005],162.576%
13,COc1cccc(CN2CCN(C(=O)N3CCCC3)[C@@H](C)C2)c1 [CBK285491],94.515%
14,CN1CCN(c2ccc([N+](=O)[O-])cc2/C=N/NC(=O)CCc2ccccc2O)CC1 [CBK263281],117.459%
15,COc1ccc2[nH]c(C(=O)O)c(CCNC(C)=O)c2c1 [CBK260943N],111.517%
16,Cc1sc2ncn(CC3(O)CCCNC3)c(=O)c2c1-c1ccc(F)cc1 (stereo not shown) [CBK307346],146.321%
17,COc1ccc(C(=O)Nc2ccccc2N2CCN(C)CC2)c(OC)c1 [CBK269763],87.7657%
18,CC1(C)OC(NC2CC3CCC2C3)=NC1=O (stereo not shown) [CBK092237],144.47%
19,O=C(O)c1nc(/N=C/c2ccc(C#Cc3ccccc3)cc2)n[nH]1 [CBK261219],109.797%
20,COc1ccc(C(=O)N2CCC3(CCCN(C(=O)c4cc(OC)c(OC)c(OC)c4)C3)C2)cc1OC (stereo not shown) [CBK131667],122.477%
21,NCC(=O)Nc1ccc(F)c(F)c1 [CBK046313],122.662%
22,Cc1ccc2oc(C(=O)N3CCN(CC(=O)N(C)C)CC3)c(C)c2c1 [CBK281423],115.996%

# Next compounds

row,Structure (SMILES),% of control remaining
1,Clc1ccc(CN2CCN(c3nccnc3OCC3COc4ccccc4O3)CC2)cc1 (stereo not shown) [CBK082786T],84.0315%
2,OC1(c2ccccn2)CCN(CCc2ccccc2)CC1 [CBK282904],117.322%
3,Nc1nnc(CC(=O)N/N=C/c2cc(Br)c(O)c(Br)c2O)s1 [CBK262131],100%
4,CCOC(=O)c1ccc(NCc2c(O)ccc3oc4c(c23)CCCC4)cc1 [CBK160394],55.4895%
5,O=S(=O)(c1ccc(F)cc1)N1CCCC(c2nccnc2-c2ccc(F)cc2)C1 (stereo not shown) [CBK286136],90.8282%
6,Cc1cccc(Nc2nc(N/N=C/c3c[nH]nc3-c3ccccc3)nc(N3CCC(C)CC3)n2)c1C [CBK262498],120.198%
7,Cc1nc(C)c(C(=O)NC(Cc2ccsc2)c2nccs2)s1 (stereo not shown) [CBK282822],140.492%
8,Cc1ccc2[nH]c(CNC(=O)c3cn[nH]c3C3CCCCN3)nc2c1 (stereo not shown) [CBK304741],88.962%
9,O=C(C1CCCC1)N1CCCC(c2cc3cccnc3[nH]2)C1 (stereo not shown) [CBK284979],69.0309%
10,CCOC(=O)C1=C(C(=O)OCC)SC(=C2C(=S)C(C)(C)N(C(=O)c3ccc4ccccc4c3)c3ccccc32)S1 [CBK261643],124.69%
11,O=C(NCCn1nc2c(cc1=O)CCCCC2)c1ccccc1F [CBK282300],130.006%
12,CCN1CCN(c2ccc(NC(=O)c3ccc(-c4cc5ccccc5oc4=O)cc3)cc2Cl)CC1 [CBK266700],206.599%
13,Cc1nc2c(c(=O)[nH]1)CCN(Cc1ccc(Cl)c(Cl)c1)C2 [CBK283969],115.458%
14,Cc1cc(C)c(C)c(S(=O)(=O)NCCOCCO)c1C [CBK269153],141.177%
15,COc1cc(/C=C(/C#N)c2ccc(C(=O)O)cc2)c([N+](=O)[O-])cc1OCc1ccccc1 [CBK268738],105.702%
16,CCCCOC(=O)c1ccc(NC(=O)c2cc(-c3ccco3)nc3c2c(C)nn3C)cc1 [CBK295313],138.716%
17,CC1CCCN(C(=O)CCc2nc3sc4c(c3c(=O)[nH]2)CCCC4)C1 (stereo not shown) [CBK306073],120.359%
18,Cn1ncc(N)c1C(=O)Nc1cccc(Cl)c1 [CBK270107],141.022%
19,O=C1NC2(CCN(C(=O)c3cccs3)CC2)Oc2ccccc21 [CBK283998],142.728%
20,N#Cc1cnc2c(-c3ccccc3)c(Cc3ccccc3)nn2c1N [CBK270191],131.18%
21,COc1cc(CNc2cc(-c3cccc4oc5ccccc5c34)ncn2)cc(OC)c1OC [CBK091177],202.615%
22,Cc1cc2ccccc2n2c(SCCC(=O)Nc3ccc(C(C)(C)C)cc3)nnc12 [CBK265639],100%
23,O=C(c1ccc(F)cc1)N1CCCC(c2nccnc2-c2cccc(C(F)(F)F)c2)C1 (stereo not shown) [CBK286142],124.622%
24,CN1Cc2ccccc2CC1C(=O)N1CCCC12CC=CC2 (stereo not shown) [CBK282838],134.493%
25,Cc1ccc(S(=O)(=O)NCCSc2nnc(N)s2)cc1 [CBK266300],99.8683%
